Measurements as given in PubChem BioAssay AID1347075 (National Center for Advancing Translational Sciences (NCATS), 2019).
In all, about 400,000 compounds went through this assay and about 5,500 (1.4%) were called active. The shares of active, inactive and inconclusive entries below differ from those in the screen. Calls come from the whole dose curve; as a rule, active = well fitted cell-killing curve with a large enough effect; inconclusive = small, poorly fitted or top-dose-only effect, or effect the other way; inactive = flat fitted curve, though single readings scatter. Where the call is inconclusive, the potency comes from a doubtful curve fit.

experiment: qHTS assay for MDR1-selective chemotherapeutics: Primary screen using the parental adenocarcinoma cell KB-3-1; settings: KB-3-1 viability, CellTiter-Glo ATP luminescence, 72 h; activity change, negative = cytotoxic: at 46.1 µM (top of the series); note: nearly all actives have a fitted effect of over 60% in size
How it was run: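 Parental KB-3-1 adenocarcinoma cells in phenol-red-free DMEM with 10% FBS were pin-treated with compounds at several concentrations, incubated 72 h at 37 °C, and viability read by CellTiter-Glo luminescence; concentration-effect curves were fitted after normalization.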
% is set by controls: 0 for no effect and ±100 for the full control effect; potency is the fitted concentration of half-maximal effect.

**Q.** With `O=C(CSc1ccc(-c2ccncc2)nn1)c1ccccc1` as the molecule, how does the Potency read?
**A.** inactive

**Q.** Which Potency does the source give for `COC(=O)c1ccc(C23CC4(C2)[C@H](CN(Cc2cccnc2)[C@@H]4c2ccccc2)C3c2ccc(C(F)(F)F)cc2)cc1` (stereo not given in full) here?
**A.** inconclusive: 29.1 µM [cytotoxic, single point]

**Q.** With `Cc1ccc2nc(-c3ccc(F)cc3)nc(SCC(=O)NCC3CCCO3)c2c1` (stereo not given) as the molecule, how does the Potency read?
**A.** inconclusive: 23.1 µM [rising, single point]

**Q.** With `C=CCn1ccc(=NC=C(C#N)C#N)c2ccccc21` as the molecule, how does the Potency read?
**A.** inconclusive: 20.6 µM [cytotoxic, partial curve]

**Q.** With `O=C(Nc1cccc(Cl)c1)NC1CCCCC1` as the molecule, how does the Potency read?
**A.** inconclusive: 29.1 µM [cytotoxic, single point]

**Q.** Which Potency does the source give for `CNS(=O)(=O)c1ccc(NC(=O)c2cc(-c3ccncc3)nc3ccc(Cl)cc23)cc1` here?
**A.** inactive

**Q.** With `CCn1c(SCC(=O)N2CCN(c3ccc(Cl)cc3)CC2)nc2ccccc2c1=O` as the molecule, how does the Potency read?
**A.** inactive

**Q.** Which Potency does the source give for `Cc1ccc(N(CC(=O)NC2CCCCC2)C(=O)CCC(=O)Nc2nccs2)cc1` here?
**A.** inactive

**Q.** With `COc1cccc(CNC(=O)[C@@H]2CCCN2C(=O)[C@@H]2CCCN2C(=O)c2cccc(OC)c2)c1` as the molecule, how does the activity change, negative = cytotoxic read?
**A.** inconclusive: 3.81%

**Q.** With `N=c1ccn2c(n1)O[C@H]1[C@H](O)[C@@H](CO)O[C@H]12` as the molecule, how does the Potency read?
**A.** inconclusive: 0.461 µM [cytotoxic, full curve]

**Q.** Which Potency does the source give for `CCOC(=O)c1ccccc1NS(=O)(=O)c1ccc(C)cc1` here?
**A.** active: 25.9 µM

**Q.** With `Cc1csc(SC(C)c2nc3scc(-c4ccccc4)c3c(=O)[nH]2)n1` (stereo not given) as the molecule, how does the Potency read?
**A.** inconclusive: 18.4 µM [cytotoxic, single point]

**Q.** Which Potency does the source give for `CCn1ccc(C(=O)Nc2ccc(Cl)cn2)n1` here?
**A.** inactive

**Q.** Which Potency does the source give for `Cc1ccc(NC(=S)NCCN2CCOCC2)cc1F` here?
**A.** inactive

**Q.** With `CCOC(=O)c1ccc(S(=O)(=O)N2CCN(CC(O)COc3cccc(C(C)=O)c3)CC2)cc1` (stereo not given) as the molecule, how does the Potency read?
**A.** inactive

**Q.** For `CCOc1ccc(-c2nnn(CC(=O)NCc3ccco3)n2)cc1OCC`, which Potency is on record?
**A.** inactive

**Q.** With `CN(C)CCCN(C(=O)c1ccco1)c1nc2cc3c(cc2s1)OCO3` as the molecule, how does the Potency read?
**A.** inconclusive: 23.1 µM [cytotoxic, single point]

**Q.** For `COc1ccc(-c2c(C#N)c(N)nc3c2CCc2ccccc2-3)cc1OC`, which Potency is on record?
**A.** active: 5.8 µM

**Q.** Which Potency does the source give for `CCN(CC)C(=O)CSc1nc2cc3c(cc2c(=O)n1CCCCCC(=O)NCc1ccc(OC)cc1)OCO3` here?
**A.** inactive

**Q.** For `Cc1cnc(NC(=O)C2CC(=O)N(c3ccc4c(c3)OCCO4)C2)s1` (stereo not given), which Potency is on record?
**A.** inactive

**Q.** With `Cc1nnsc1-c1nnc(SCC(=O)c2ccc(C#N)cc2)n1C1CC1` as the molecule, how does the Potency read?
**A.** inactive

**Q.** Which Potency does the source give for `CCOc1ccc(CNc2ccc(N3CCN(Cc4ccccc4)CC3)cc2)cc1` here?
**A.** inconclusive: 11.6 µM [cytotoxic, partial curve, poor fit]

**Q.** With `Cc1ccccc1OCCCn1c(CO)nc2ccccc21` as the molecule, how does the Potency read?
**A.** inconclusive: 18.4 µM [cytotoxic, single point]

**Q.** Which Potency does the source give for `Cc1ccc2nc(-c3ccccc3N)[nH]c2c1` here?
**A.** inconclusive: 16.4 µM [cytotoxic, single point]

**Q.** For `Cc1ccc(C)c(S(=O)(=O)N2CCN(c3ncccn3)CC2)c1`, which Potency is on record?
**A.** inconclusive: 20.6 µM [cytotoxic, partial curve, poor fit]

**Q.** Which Potency does the source give for `COCCNC(=O)/C(C#N)=C/c1ccc(N2CCOCC2)o1` here?
**A.** inconclusive: 29.1 µM [rising, partial curve, poor fit]

**Q.** For `Cn1c(Cc2cccs2)nnc1SCC(=O)Nc1ccccc1`, which Potency is on record?
**A.** inconclusive: 0.092 µM [rising, full curve]

**Q.** Which Potency does the source give for `COc1ccc(-c2nn(-c3ccccc3)cc2C(=O)NCC2CCCO2)cc1` (stereo not given) here?
**A.** inconclusive: 18.4 µM [cytotoxic, single point]

**Q.** Which Potency does the source give for `CCOc1ccc(N(C(=O)c2cnsn2)C(C(=O)NC2CCCCC2)c2ccncc2)cc1` (stereo not given) here?
**A.** inactive

**Q.** Which Potency does the source give for `CCOc1cc(C(=S)N2CCCCC2)ccc1OS(=O)(=O)c1ccc(Cl)cc1` here?
**A.** inconclusive: 9.2 µM [cytotoxic, partial curve, poor fit]

**Q.** With `CCCC[n+]1ccn(-c2nc3ccccc3nc2[N-]S(=O)(=O)c2cccs2)c1` as the molecule, how does the Potency read?
**A.** inactive

**Q.** Which Potency does the source give for `CC1=C(C(=O)Nc2cccc(F)c2)C(c2ccsc2)C2=C(CC(C)(C)CC2=O)N1` (stereo not given) here?
**A.** active: 2.91 µM

**Q.** With `Cc1nc(Nc2ccc(S(N)(=O)=O)cc2)sc1-c1ccccc1` as the molecule, how does the Potency read?
**A.** inactive

**Q.** Which Potency does the source give for `CCc1ccc2c(c1)C(NC(C)=O)C(=O)N2CC` (stereo not given) here?
**A.** inconclusive: 25.9 µM [rising, single point]

**Q.** For `O=C(CNc1ccc(F)cc1)N/N=C/c1c(O)ccc2ccccc12`, which Potency is on record?
**A.** inconclusive: 7.31 µM [cytotoxic, partial curve, poor fit]

**Q.** With `COc1ccc(NC(=O)c2sc(Cl)nc2-c2ccccc2)cc1` as the molecule, how does the Potency read?
**A.** inconclusive: 29.1 µM [cytotoxic, single point]

**Q.** Which Potency does the source give for `Cc1cc(C)n(Cc2ccc(NC(=O)c3ccc(COc4ccccc4Br)cc3)cc2)n1` here?
**A.** active: 16.4 µM

**Q.** With `CCCC1=Nc2cc(C(=O)NCCc3ccc(OCC)cc3)ccc2Sc2ccccc21` as the molecule, how does the Potency read?
**A.** inconclusive: 25.9 µM [cytotoxic, single point]

**Q.** For `CC(C)(O)C#Cc1ccc(N2C(c3ccsc3)=Cc3ccc(F)cc3C2c2c[nH]c3ccc(C#N)cc23)cc1` (stereo not given), which Potency is on record?
**A.** inconclusive: 18.4 µM [cytotoxic, single point]

**Q.** For `COc1cc2c(-c3ccccc3O)nc3c(c(C)nn3-c3ccccc3)c2cc1OC`, which Potency is on record?
**A.** inconclusive: 18.4 µM [cytotoxic, single point]

**Q.** With `O=C(Nc1nnc(CSCc2ccc(F)cc2)s1)c1cccc([N+](=O)[O-])c1` as the molecule, how does the Potency read?
**A.** inconclusive: 32.6 µM [cytotoxic, single point]

**Q.** For `COc1ccc(-c2nc(N)nc(C(F)(F)F)c2-c2csc(C)n2)c(O)c1`, which activity change, negative = cytotoxic is on record?
**A.** inconclusive: -15.8%

**Q.** For `O=C(CN1CCCC1)N/N=C/c1c(O)ccc2ccccc12`, which Potency is on record?
**A.** inconclusive: 29.1 µM [cytotoxic, single point]

**Q.** With `Cc1oc(=O)c(NC(=O)c2cccc(Cl)c2)cc1C(=O)c1ccccc1` as the molecule, how does the Potency read?
**A.** inactive

**Q.** Which Potency does the source give for `CC1CCN(S(=O)(=O)c2cccc(C(=O)Nc3ccccc3)c2)CC1` here?
**A.** inconclusive: 29.1 µM [cytotoxic, single point]

**Q.** For `COc1ccccc1NC(=O)C1=C(C)Nc2nnnn2C1c1cccc(C)c1` (stereo not given), which Potency is on record?
**A.** inconclusive: 29.1 µM [cytotoxic, single point]

**Q.** For `Nn1c(SCC(=O)Nc2ccc3c(c2)CCC3)nnc1C1CC1`, which activity change, negative = cytotoxic is on record?
**A.** inconclusive: -2.49%

**Q.** With `CC1CCCN(C(C(=O)NC2CCCCC2)c2cc3c(cc2[N+](=O)[O-])OCO3)C1` (stereo not given) as the molecule, how does the Potency read?
**A.** inconclusive: 23.1 µM [cytotoxic, single point]

**Q.** With `O=C1NC(Cc2ccc(O)cc2)c2nc3cc(Cl)ccc3c(=O)n2-c2cc(Cl)ccc21` (stereo not given) as the molecule, how does the Potency read?
**A.** inconclusive: 29.1 µM [cytotoxic, single point]

**Q.** With `c1ccc(-c2sc3ccccc3c2-c2ccc(OCCN3CCCC3)cc2)cc1` as the molecule, how does the Potency read?
**A.** inconclusive: 23.1 µM [cytotoxic, single point]

**Q.** With `COc1ccc(-c2cnc3c(NC=O)cc(-c4ccoc4)cn23)cc1OC` as the molecule, how does the Potency read?
**A.** inconclusive: 29.1 µM [cytotoxic, single point]

**Q.** Which Potency does the source give for `CS(=O)(=O)NCc1ccccc1Br` here?
**A.** inconclusive: 23.1 µM [cytotoxic, single point]

**Q.** Which Potency does the source give for `Cc1ccc(C(=O)Nn2c(N)c(S(=O)(=O)c3ccc(C)cc3)c3nc4ccccc4nc32)cc1` here?
**A.** inconclusive: 29.1 µM [cytotoxic, single point]

**Q.** Which Potency does the source give for `C#CCN1C=C(C(=O)OCC)C(C)NS1(=O)=O` (stereo not given) here?
**A.** inactive

**Q.** With `COc1cccc(C(C)(O)c2nc(-c3ccc(C)c(C)c3)cs2)c1` (stereo not given) as the molecule, how does the Potency read?
**A.** inactive

**Q.** With `COc1ccc(CNC(=S)Nc2ccc(Br)cc2)cc1` as the molecule, how does the Potency read?
**A.** inactive

**Q.** Which Potency does the source give for `O=C(Nc1nnc(C(F)(F)F)s1)C1COc2ccccc2O1` (stereo not given) here?
**A.** inconclusive: 29.1 µM [cytotoxic, single point]

**Q.** Which Potency does the source give for `CCOc1ccccc1N1CC(c2nc3ccccc3n2CCOc2ccc(C(C)(C)C)cc2)CC1=O` (stereo not given) here?
**A.** inconclusive: 16.4 µM [rising, single point]

**Q.** With `CCOC(=O)c1c2c(n(Cc3ccccc3)c1C)C(=O)C(=O)c1ccccc1-2` as the molecule, how does the Potency read?
**A.** active: 2.91 µM

**Q.** For `CC(C)c1ccc(CNC(=O)C(=O)NCC2CCCO2)cc1` (stereo not given), which Potency is on record?
**A.** inconclusive: 18.4 µM [cytotoxic, single point]

**Q.** Which Potency does the source give for `NS(=O)(=O)c1cccc(NC(=O)c2ccccc2NS(=O)(=O)c2ccc(F)cc2)c1` here?
**A.** inactive

**Q.** For `Cc1cccc(C2C3=C(CCCC3=O)N=C3c4ccccc4C(=O)C32)c1` (stereo not given), which Potency is on record?
**A.** inconclusive: 32.6 µM [cytotoxic, single point]

**Q.** With `CN(CC(O)CON=C1c2ccccc2-c2ccccc21)S(=O)(=O)c1ccc(Br)cc1` (stereo not given) as the molecule, how does the Potency read?
**A.** inconclusive: 29.1 µM [cytotoxic, single point]

**Q.** Which Potency does the source give for `CCOC(=O)c1ccc(NC(=O)c2ccc(CN3CCc4ccccc4C3)cc2)cc1` here?
**A.** inconclusive: 8.2 µM [cytotoxic, partial curve]

**Q.** With `Cc1ccc(-c2csc3ncnc(NS(=O)(=O)c4ccc(Cl)cc4)c23)cc1` as the molecule, how does the Potency read?
**A.** inactive

**Q.** For `CSc1cccc(NC(=O)/C=C/c2cccc(Cl)c2)c1`, which Potency is on record?
**A.** inconclusive: 29.1 µM [cytotoxic, single point]

**Q.** With `COc1ccc(NC(=O)c2cc3cccc(OC)c3oc2=Nc2ccc(C(=O)O)cc2)cc1OC` as the molecule, how does the Potency read?
**A.** inconclusive: 25.9 µM [cytotoxic, partial curve, poor fit]

**Q.** For `COc1ccc(-c2nc(SCC(=O)NC3CCCCC3)n[nH]2)cc1`, which Potency is on record?
**A.** inconclusive: 23.1 µM [cytotoxic, partial curve, poor fit]

**Q.** Which Potency does the source give for `ClCc1nnc(-c2cc3c(s2)CCCC3)o1` here?
**A.** inconclusive: 29.1 µM [cytotoxic, single point]

**Q.** With `COc1ccc(C(C)(C)C)cc1NC(=O)COC(=O)CN1C(=O)NC2(CCCCC2C)C1=O` (stereo not given) as the molecule, how does the Potency read?
**A.** inconclusive: 18.4 µM [rising, single point]
